From US11692007B2 (priority 2021, dated 2023)

Legend:
[1] = general procedure: Fmoc solid-phase peptide synthesis; Fmoc-Ile-Trt-PS; DIC/OxymaPure; settings: whole synthesis, HPLC-MS, scale of the general procedure 800 mg resin
[2] = general procedure: Fmoc solid-phase peptide synthesis; Fmoc-Ile-Trt-PS resin (loading 1.1 mmol/g); DIC/OxymaPure; settings: whole synthesis, HPLC-MS, scale of the general procedure 800 mg resin; run 2
[3] = general procedure: Fmoc solid-phase peptide synthesis; Fmoc-Thr(tBu)-ol-Trt-PS; DIC/OxymaPure; settings: whole synthesis, HPLC-MS, scale of the general procedure 800 mg resin; run 1

Substance | crude HPLC purity [1] | crude HPLC purity [2] | crude HPLC purity [3]
H-AKDGYI-OH | 97.4% | – | –
H-D-Phe-Cys-Phe-D-Trp-Lys-Thr-Cys-Thr-ol | – | 99.3% and 98.8% and 99.0% | 83.2% and 68.3% and 76.8%

Several values for one entry are separate records, joined by “and”; a condition that tells them apart may be missing. Equal values may be shown once.
